± gives the standard deviation of the averaged measurements. This is a selection; strong and weak results do not stand in their true shares. Most values lie at the level of the controls, where differences are scatter.
Compound: Nc1ncnc2c1ncn2[C@@H]1O[C@H](COP(=O)(O)OP(=O)(O)OP(=O)(O)O)[C@@H](O)[C@H]1O [adenosine triphosphate]
Test: NP40-soluble protein abundance relative to vehicle (solubility fold change) (ratio); higher = more soluble protein in presence of ATP
Outline: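 Jurkat crude lysate prepared with a Dounce homogeniser was treated at eight concentrations spanning 0.1 to 10 mM, 10 min at room temperature then 3 min at 37 °C. Solubilisation with 0.8% NP40 and benzonase and ultracentrifugation preceded TMT labelling of the supernatant for LC-MS/MS. Fold change against the detergent-processed vehicle was determined per replicate from vsn-normalised intensities, across three independent experiments.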

Amino acid sequences for entries named in this document (tags omitted). A change or cut given only in a name is not applied to a line headed by its entry.
UniProt O60925, whole entry: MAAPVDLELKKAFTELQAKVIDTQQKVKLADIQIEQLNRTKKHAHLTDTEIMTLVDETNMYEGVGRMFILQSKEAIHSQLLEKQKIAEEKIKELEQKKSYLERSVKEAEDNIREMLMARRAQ
UniProt O75369, whole entry: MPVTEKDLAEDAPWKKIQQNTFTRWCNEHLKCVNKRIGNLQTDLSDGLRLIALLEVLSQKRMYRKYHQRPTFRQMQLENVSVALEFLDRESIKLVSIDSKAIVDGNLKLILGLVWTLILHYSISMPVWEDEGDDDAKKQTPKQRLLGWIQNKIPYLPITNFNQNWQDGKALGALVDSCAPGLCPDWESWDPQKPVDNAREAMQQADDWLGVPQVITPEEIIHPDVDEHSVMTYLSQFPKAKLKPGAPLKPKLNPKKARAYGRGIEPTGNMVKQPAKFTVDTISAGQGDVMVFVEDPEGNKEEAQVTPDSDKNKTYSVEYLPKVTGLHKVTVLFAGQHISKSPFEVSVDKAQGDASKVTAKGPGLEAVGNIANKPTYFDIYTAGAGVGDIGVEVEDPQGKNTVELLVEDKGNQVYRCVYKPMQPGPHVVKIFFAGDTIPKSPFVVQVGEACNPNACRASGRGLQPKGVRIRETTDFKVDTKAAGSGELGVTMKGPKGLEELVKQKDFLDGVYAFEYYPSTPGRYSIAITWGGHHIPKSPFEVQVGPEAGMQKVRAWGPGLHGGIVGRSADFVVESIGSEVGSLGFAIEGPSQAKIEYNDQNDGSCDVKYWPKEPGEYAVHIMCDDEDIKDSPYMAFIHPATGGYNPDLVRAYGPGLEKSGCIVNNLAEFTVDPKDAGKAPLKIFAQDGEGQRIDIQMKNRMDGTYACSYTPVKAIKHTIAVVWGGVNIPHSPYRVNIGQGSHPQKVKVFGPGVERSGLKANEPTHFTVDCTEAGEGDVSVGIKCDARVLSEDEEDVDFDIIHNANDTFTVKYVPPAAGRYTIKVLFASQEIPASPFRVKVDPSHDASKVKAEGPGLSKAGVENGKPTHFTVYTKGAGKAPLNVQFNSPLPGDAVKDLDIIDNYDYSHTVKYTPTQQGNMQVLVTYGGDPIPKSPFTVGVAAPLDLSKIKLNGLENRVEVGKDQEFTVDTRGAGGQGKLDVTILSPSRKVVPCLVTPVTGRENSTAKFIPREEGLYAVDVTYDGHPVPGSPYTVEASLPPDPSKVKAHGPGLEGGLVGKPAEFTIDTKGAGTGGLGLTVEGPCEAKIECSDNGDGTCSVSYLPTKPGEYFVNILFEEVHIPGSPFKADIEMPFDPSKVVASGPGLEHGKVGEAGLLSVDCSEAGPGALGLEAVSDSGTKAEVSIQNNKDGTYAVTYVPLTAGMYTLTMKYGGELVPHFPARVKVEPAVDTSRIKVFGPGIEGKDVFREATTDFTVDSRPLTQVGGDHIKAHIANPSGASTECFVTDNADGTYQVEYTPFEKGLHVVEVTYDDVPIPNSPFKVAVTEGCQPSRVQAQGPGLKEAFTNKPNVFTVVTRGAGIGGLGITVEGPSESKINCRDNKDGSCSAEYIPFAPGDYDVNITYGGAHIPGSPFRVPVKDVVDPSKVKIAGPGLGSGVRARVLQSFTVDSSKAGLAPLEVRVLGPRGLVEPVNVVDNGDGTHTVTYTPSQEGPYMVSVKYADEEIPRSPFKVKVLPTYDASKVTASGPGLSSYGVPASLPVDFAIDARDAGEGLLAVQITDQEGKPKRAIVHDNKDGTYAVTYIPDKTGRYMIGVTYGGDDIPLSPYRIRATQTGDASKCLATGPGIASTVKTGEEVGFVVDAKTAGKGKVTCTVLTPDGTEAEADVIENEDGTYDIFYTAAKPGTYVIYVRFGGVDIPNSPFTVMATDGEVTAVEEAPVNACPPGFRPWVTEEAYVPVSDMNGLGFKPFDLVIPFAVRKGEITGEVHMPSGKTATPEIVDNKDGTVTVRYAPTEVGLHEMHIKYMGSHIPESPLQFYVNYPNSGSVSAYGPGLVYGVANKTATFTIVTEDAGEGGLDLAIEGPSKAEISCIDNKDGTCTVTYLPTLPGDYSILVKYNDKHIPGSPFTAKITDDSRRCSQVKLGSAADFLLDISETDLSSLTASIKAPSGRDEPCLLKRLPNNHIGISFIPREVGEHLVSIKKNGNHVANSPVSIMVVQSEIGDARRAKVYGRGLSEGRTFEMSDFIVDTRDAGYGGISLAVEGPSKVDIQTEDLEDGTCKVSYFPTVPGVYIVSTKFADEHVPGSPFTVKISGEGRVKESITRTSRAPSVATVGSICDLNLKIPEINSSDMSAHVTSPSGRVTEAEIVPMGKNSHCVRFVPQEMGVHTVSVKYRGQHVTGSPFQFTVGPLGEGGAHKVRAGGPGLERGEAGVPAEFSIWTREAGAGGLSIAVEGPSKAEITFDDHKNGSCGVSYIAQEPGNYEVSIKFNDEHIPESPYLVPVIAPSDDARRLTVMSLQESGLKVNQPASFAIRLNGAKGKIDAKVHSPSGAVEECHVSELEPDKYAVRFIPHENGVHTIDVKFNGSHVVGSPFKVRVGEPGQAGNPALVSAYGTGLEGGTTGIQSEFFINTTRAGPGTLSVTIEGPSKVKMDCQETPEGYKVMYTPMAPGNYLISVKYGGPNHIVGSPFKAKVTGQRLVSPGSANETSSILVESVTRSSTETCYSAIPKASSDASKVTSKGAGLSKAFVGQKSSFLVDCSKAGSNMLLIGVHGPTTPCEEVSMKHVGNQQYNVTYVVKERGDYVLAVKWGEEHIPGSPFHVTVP
UniProt O95197: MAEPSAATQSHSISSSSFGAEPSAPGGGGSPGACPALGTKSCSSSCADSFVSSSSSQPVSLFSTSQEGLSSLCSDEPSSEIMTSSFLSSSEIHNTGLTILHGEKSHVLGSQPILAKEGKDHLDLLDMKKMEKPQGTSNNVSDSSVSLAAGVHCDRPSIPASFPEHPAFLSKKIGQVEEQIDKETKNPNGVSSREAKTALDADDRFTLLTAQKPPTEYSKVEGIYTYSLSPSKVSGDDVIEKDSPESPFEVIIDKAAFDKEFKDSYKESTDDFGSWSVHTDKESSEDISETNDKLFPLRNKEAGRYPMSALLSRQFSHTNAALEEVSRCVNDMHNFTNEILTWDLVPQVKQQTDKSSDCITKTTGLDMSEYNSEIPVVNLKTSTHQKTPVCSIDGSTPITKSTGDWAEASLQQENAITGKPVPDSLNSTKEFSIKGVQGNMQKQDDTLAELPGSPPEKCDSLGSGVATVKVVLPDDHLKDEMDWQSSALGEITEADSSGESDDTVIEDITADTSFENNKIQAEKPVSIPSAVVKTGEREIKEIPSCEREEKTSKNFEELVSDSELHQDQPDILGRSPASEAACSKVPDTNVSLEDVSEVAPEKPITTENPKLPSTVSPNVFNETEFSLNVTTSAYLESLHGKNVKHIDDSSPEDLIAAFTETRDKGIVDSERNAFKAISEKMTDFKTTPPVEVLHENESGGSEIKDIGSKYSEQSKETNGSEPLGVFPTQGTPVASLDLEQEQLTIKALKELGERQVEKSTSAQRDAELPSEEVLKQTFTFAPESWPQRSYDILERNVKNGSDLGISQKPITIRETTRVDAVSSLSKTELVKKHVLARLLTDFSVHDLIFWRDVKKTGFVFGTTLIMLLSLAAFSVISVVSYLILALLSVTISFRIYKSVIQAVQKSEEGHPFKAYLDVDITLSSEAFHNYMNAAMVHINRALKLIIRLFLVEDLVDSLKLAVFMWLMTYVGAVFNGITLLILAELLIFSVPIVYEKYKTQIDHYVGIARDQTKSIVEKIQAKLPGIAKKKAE
UniProt O75688: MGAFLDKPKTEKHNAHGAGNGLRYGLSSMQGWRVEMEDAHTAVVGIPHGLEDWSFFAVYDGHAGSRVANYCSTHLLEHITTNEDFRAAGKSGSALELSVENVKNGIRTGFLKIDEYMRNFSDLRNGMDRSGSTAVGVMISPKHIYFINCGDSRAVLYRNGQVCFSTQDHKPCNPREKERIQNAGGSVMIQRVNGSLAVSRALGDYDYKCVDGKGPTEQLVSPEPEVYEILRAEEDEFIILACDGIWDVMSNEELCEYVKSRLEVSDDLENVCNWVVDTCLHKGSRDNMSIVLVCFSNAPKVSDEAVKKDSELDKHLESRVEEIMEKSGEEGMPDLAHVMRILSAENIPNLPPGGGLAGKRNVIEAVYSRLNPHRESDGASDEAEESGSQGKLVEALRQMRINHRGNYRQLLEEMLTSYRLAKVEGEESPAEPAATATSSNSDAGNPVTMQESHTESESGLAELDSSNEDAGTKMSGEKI
UniProt O60669: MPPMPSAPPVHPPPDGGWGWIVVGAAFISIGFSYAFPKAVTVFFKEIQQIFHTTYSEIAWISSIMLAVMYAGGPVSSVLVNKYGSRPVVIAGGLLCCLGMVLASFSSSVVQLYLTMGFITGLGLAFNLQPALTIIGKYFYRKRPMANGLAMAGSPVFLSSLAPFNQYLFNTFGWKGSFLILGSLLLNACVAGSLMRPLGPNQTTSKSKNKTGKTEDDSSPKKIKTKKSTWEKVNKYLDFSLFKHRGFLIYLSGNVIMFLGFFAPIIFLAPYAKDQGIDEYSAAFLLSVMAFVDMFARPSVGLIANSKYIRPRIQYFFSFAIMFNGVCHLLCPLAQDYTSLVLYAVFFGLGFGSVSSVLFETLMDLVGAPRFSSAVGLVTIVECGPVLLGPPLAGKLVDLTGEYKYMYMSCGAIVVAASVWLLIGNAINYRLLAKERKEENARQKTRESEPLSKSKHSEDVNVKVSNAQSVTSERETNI
UniProt O60870: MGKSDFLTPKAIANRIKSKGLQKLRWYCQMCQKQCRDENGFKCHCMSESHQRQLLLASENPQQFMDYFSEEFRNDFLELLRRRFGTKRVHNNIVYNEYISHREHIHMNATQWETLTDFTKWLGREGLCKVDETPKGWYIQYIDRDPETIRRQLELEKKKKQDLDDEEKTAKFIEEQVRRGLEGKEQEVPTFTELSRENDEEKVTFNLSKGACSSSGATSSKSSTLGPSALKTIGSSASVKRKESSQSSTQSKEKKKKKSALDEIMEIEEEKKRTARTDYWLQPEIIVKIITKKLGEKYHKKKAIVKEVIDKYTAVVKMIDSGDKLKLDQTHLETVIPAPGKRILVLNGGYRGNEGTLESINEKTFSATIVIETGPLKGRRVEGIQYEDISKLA
UniProt O95391: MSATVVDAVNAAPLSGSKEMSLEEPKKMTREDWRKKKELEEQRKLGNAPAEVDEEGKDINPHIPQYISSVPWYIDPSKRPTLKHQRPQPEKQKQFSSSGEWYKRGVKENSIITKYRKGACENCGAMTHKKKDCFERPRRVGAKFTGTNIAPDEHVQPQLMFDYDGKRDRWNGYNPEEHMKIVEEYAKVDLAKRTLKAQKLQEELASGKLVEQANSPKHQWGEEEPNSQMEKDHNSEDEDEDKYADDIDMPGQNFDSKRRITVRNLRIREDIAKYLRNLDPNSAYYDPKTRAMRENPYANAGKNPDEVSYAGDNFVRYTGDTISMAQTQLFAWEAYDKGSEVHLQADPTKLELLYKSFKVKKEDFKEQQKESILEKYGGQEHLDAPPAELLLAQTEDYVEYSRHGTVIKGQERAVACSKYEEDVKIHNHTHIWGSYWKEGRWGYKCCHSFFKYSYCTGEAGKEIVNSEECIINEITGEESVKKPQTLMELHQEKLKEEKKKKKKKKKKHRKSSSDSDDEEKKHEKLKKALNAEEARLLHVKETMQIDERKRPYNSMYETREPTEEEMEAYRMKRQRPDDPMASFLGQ
UniProt O75208: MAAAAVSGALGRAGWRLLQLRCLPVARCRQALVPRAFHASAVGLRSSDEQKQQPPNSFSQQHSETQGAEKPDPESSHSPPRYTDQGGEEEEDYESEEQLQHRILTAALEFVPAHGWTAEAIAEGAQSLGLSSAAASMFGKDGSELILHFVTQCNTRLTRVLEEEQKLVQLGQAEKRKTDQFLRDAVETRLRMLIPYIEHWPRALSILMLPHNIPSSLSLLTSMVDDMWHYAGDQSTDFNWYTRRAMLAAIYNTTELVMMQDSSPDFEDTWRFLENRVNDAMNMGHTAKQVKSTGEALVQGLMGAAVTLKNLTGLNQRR

Target	NP40-soluble protein abundance (concentration: 0.1mM)	NP40-soluble protein abundance (concentration: 0.5mM)
PFDN1 (UniProt O60925)	0.924 ± 0.12	0.895 ± 0.087
UniProt O60508 and related entries	1.08 ± 0.065	1.05 ± 0.04
UniProt O75369-8|O75369-9|O75369 and related entries	0.997 ± 0.032	1.02 ± 0.068
UniProt O95197 and related entries	0.924 ± 0.037	0.921 ± 0.038
UniProt O75808 and related entries	0.994 ± 0.094	0.945 ± 0.049
UniProt O75340 and related entries	1 ± 0.017	0.96 ± 0.071
DOK2 (UniProt O60496)	1.02 ± 0.02	1.01 ± 0.028
ZBED4 (UniProt O75132)	0.989 ± 0.05	1.02 ± 0.049
UniProt O75688 and related entries	1.02 ± 0.036	0.987 ± 0.042
DENND4B (UniProt O75064)	0.987 ± 0.039	1.03 ± 0.068
RANBP6 (UniProt O60518)	1.01 ± 0.13	0.972 ± 0.087
UniProt O60671 and related entries	1.05 ± 0.14	1.08 ± 0.11
SLC16A7 (UniProt O60669)	0.972 ± 0.017	0.944 ± 0.0098
UniProt O95394 and related entries	1.05 ± 0.056	1.04 ± 0.05
KIN (UniProt O60870)	1.05 ± 0.032	1.06 ± 0.08
SLU7 (UniProt O95391)	0.869 ± 0.046	0.894 ± 0.06
CBR3 (UniProt O75828)	1.03 ± 0.035	0.989 ± 0.032
UniProt O75964	0.858 ± 0.08	0.864 ± 0.18
KPNA6 (UniProt O60684)	1.045 ± 0.0079	1.05 ± 0.027
UniProt O75208 and related entries	0.872 ± 0.065	0.825 ± 0.096
AHSA1 (UniProt O95433)	1.02 ± 0.08	1.05 ± 0.071

Whole records as entered above:
UniProt O95394 and related entries in the list: NP40-soluble protein abundance (concentration: 0.1mM): 1.05 ± 0.056; NP40-soluble protein abundance (concentration: 0.5mM): 1.04 ± 0.05
SLU7 (UniProt O95391) in the list: NP40-soluble protein abundance (concentration: 0.1mM): 0.869 ± 0.046; NP40-soluble protein abundance (concentration: 0.5mM): 0.894 ± 0.06

Source: the supplement of paper PMC6411743
